Data as given in PubChem BioAssay AID1224830 (NIAID, 2016)

Assay: 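Regulators of TLR4 signalling towards TNF-alpha in macrophage-like cells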 (primary screen)
System: human THP-1 monocytic leukaemia cells, TNF dual-luciferase reporter clone, PMA-differentiated to macrophage-like cells
Knock-down reagent: siRNA pool against human genes, 50 nM
Duration: LPS for 4 h, given about 3 days after siRNA transfection
Conditions: bacterial LPS (TLR4 ligand), 10 ng/ml
Read-out: 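Ratio of firefly to renilla light, scaled to the plate median and expressed as a robust z-score per replicate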
Reading the numbers: TNF reporter robust z-score: higher = stronger TNF reporter response to LPS
Active means: 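a well is active when its z-score exceeds 2.8 or falls below -1.5; control wells carry no call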
In all, the deposit lists about 18,000 reagents; below is an unselected part. About 2,900 of them (16%) count as active. 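Calls are made per well; low scores hint the gene aids the LPS response, high scores that it dampens it.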 Repeated entries: four replicate wells of each siRNA pool.

target gene,TNF reporter robust z-score,Call
SIT1,-1.06,inactive
SIT1,-1.43,inactive
SIT1,-0.51,inactive
SIT1,-0.89,inactive
CMC1,-0.48,inactive
CMC1,-0.27,inactive
CMC1,-1.42,inactive
CMC1,-0.53,inactive
SYP,-1.17,inactive
SYP,-0.45,inactive
SYP,-1,inactive
SYP,-0.3,inactive
SENP7,-0.57,inactive
SENP7,-0.11,inactive
SENP7,-0.17,inactive
INIP,3.65,active
INIP,3.74,active
INIP,3.48,active
INIP,1.8,inactive
DNAH9,0.36,inactive
DNAH9,0.11,inactive
DNAH9,-0.96,inactive
DNAH9,-0.68,inactive
DCHS1,0.42,inactive
DCHS1,2,inactive
DCHS1,2.59,inactive
DCHS1,1.65,inactive
SEL1L,0.83,inactive
SEL1L,0.16,inactive
SEL1L,1.37,inactive
SEL1L,-1.37,inactive
TMEM123,-1.72,active
TMEM123,-0.7,inactive
TMEM123,-0.38,inactive
TMEM123,-0.44,inactive
FANCM,2.32,inactive
FANCM,0.44,inactive
FANCM,1.86,inactive
FANCM,2.31,inactive
ZC3HAV1L,-0.2,inactive
ZC3HAV1L,0.7,inactive
ZC3HAV1L,0.14,inactive
ZC3HAV1L,0.89,inactive
CPEB4,1.09,inactive
CPEB4,0.51,inactive
CPEB4,0.57,inactive
CPEB4,0.71,inactive
WDPCP,-0.02,inactive
WDPCP,2.77,inactive
WDPCP,0.5,inactive
WDPCP,-0.61,inactive
ZNF34,0.05,inactive
ZNF34,0.6,inactive
ZNF34,-1.03,inactive
ZNF34,-0.11,inactive
KRT3,-0.48,inactive
KRT3,0.56,inactive
KRT3,-0.41,inactive
KRT3,0.61,inactive
AKAP4,1.37,inactive
AKAP4,1.88,inactive
AKAP4,2.47,inactive
AKAP4,-0.76,inactive
HYCC2,-0.46,inactive
HYCC2,0.77,inactive
HYCC2,0.78,inactive
HYCC2,1.53,inactive

Continued.
target gene,TNF reporter robust z-score,Call
ADNP,-0.76,inactive
ADNP,1.26,inactive
ADNP,0.66,inactive
ADNP,0.28,inactive
DALRD3,-0.33,inactive
DALRD3,-0.92,inactive
DALRD3,-0.74,inactive
DALRD3,0.35,inactive
KANSL1L,0.1,inactive
KANSL1L,0.72,inactive
KANSL1L,-0.01,inactive
KANSL1L,0.77,inactive
NOXRED1,-0.38,inactive
NOXRED1,0.28,inactive
NOXRED1,-0.5,inactive
NOXRED1,-0.06,inactive
LSM5,-1.02,inactive
LSM5,-0.2,inactive
LSM5,0.32,inactive
LSM5,0.07,inactive
C16orf89,0.31,inactive
C16orf89,-0.19,inactive
C16orf89,-0.2,inactive
C16orf89,0.13,inactive
GPATCH2L,,inactive
GPATCH2L,-0.24,inactive
GPATCH2L,-0.27,inactive
GPATCH2L,-0.51,inactive
RARRES2,-0.35,inactive
RARRES2,0.34,inactive
RARRES2,0.7,inactive
RARRES2,1.48,inactive
H2AC21,0.14,inactive
H2AC21,0.33,inactive
H2AC21,-0.76,inactive
H2AC21,-0.8,inactive
KCNJ1,1.64,inactive
KCNJ1,0.84,inactive
KCNJ1,0.78,inactive
KCNJ1,0.32,inactive
MAPK13,-0.54,inactive
MAPK13,-0.2,inactive
MAPK13,-1.16,inactive
MAPK13,-1.35,inactive
